Our source for the binding values is PMC9829575.

Results are given in words; binding and its absence hold for the method and conditions named. Binding seen in cells or lysates may run through a third protein. Binding calls can cover weak binding; strength is not graded here.

This assay deals with recombinant ubiquitin-associated domain (UBA) of p62/sequestosome-1 on agarose beads (UniProt Q13501). Description: pull-down; UBA-p62 agarose beads (Enzo) or glutathione-agarose beads incubated with RIPA-soluble lysates of the isolated sciatic nerve myelin fraction for 24 h at 4 °C with rotation; beads washed three times with RIPA buffer, then SDS-PAGE; only the target purified.

Take “myelin basic protein (from UniProt P04370-5)”: the binding result is “binds”.
